{"source": "patent US7109175B1", "about": "“Specific steady-state R-type CA2+ channel blockers and use thereof” (Universite de Sherbrooke, priority 2000, dated 2006)", "test_system": "writhing response in mice", "experiment": "Writhing response in mice (acetic acid, acetylcholine, kaolin)", "assay_type": "in vivo", "description": "The antinociceptive actions of compound MV 8612 and MV 8608 were investigated in different models of nociception in mice as reported previously (Vaz et al., 1996, J. Pharmacol. Exp. Ther. 278:304–312)."}
{"smiles": "CN1CC[C@]23c4c5ccc(O)c4O[C@H]2[C@@H](O)C=C[C@H]3[C@H]1C5", "note": "[MORPHINE, morphine, reference compound]", "values": [{"measurement": "acetic acid-induced writhes, i.c.v.", "setting": "MV 8612 4.2 to 42 nmol/site, morphine 0.26 to 13 nmol/site", "result": "dose-related antinociception"}, {"measurement": "ID50 ACETIC ACID", "setting": "i.p., mice, acetic acid-induced writhes", "result": "1.3 (1.0–1.6) μmol/kg"}]}
